Assay [1] concerns the target WT mouse CD28 fused at the C-terminus to CER or monomeric YFP (mouse) (UniProt P31041). Description: FRET or BRET; intermolecular FRET by flow cytometry (LSRII): sensitised emission of YFP after excitation of CER at 405 nm; CER and YFP fusions co-expressed by sequential retroviral transduction in CD28-negative DO11.10 T cell hybridomas.
In assay [2] the target is C123S mouse CD28 fused at the C-terminus to CER or monomeric YFP (mouse) (UniProt P31041). The description is as above.
In assay [3] the target is YT/LL (Y145L/T150L) mouse CD28 fused at the C-terminus to CER or monomeric YFP (mouse) (UniProt P31041). The description is as above.
Assay [4] addresses wild type (WT) GpA TM domain in the ToxLuc construct (ToxR-TM-MBP). Kind of assay: ToxLuc (ToxR transcription reporter of TM dimerisation in E. coli); TM domain inserted between ToxR and MBP; dimerisation activates ToxR and induces luciferase; lysates of E. coli NT326 assayed with ONE-Glo luciferase.
Assay [5] concerns the target WT mouse CD28 TM domain in the ToxLuc construct (ToxR-TM-MBP) (mouse). Described as above.
The target of assay [6] is WT human CD28 TM domain in the ToxLuc construct (ToxR-TM-MBP) (human). The assay is described as above.

Protein sequences, listed by entry. Tags and fused reporters are not part of them. Lines headed by an entry give the natural chain unless they say otherwise; changes in a name come on top. Chains listed by the source or under a name are the forms on record and can include a tag or linker. Residues count along the entry.
WT mouse CD28 fused at the C-terminus to CER or monomeric YFP (P31041, residues 20-218): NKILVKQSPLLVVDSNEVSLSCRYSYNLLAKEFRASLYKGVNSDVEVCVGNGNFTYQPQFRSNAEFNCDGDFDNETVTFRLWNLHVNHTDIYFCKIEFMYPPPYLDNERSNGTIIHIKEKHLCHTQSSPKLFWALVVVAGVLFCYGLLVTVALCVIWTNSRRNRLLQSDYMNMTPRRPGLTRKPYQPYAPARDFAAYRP
C123S mouse CD28 fused at the C-terminus to CER or monomeric YFP (P31041, form named): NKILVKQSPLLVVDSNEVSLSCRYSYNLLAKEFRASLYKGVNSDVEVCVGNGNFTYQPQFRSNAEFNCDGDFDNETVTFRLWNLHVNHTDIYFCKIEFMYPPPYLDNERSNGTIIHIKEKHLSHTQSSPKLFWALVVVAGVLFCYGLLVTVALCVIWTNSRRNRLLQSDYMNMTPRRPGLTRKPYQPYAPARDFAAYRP
YT/LL (Y145L/T150L) mouse CD28 fused at the C-terminus to CER or monomeric YFP (P31041, form named): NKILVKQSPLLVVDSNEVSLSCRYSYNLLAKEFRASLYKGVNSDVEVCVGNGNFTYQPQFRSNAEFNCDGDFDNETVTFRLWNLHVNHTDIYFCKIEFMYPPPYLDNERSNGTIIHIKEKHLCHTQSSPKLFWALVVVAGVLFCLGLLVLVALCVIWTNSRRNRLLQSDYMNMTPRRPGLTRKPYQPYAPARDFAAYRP

These are yes or no findings as the source states them, for the method shown. For part of these data: Binding seen in cells or lysates may run through a third protein. Some results given as binding are weak or reduced against the parent protein; the word gives no strength. For part of these data: Tags and fused reporters may be left off the sequences shown.

For “WT mouse CD28 fused at the C-terminus to CER or monomeric YFP (from UniProt P31041 20-218) (receptor)”, the binding entry in assay [1] is “binds”. For the molecule “C123S mouse CD28 fused at the C-terminus to CER or monomeric YFP (from UniProt P31041 20-218) (receptor)”, in assay [2], the binding entry was “binds”. For “YT/LL (Y145L/T150L) mouse CD28 fused at the C-terminus to CER or monomeric YFP (from UniProt P31041 20-218) (receptor)”, in assay [3], the binding entry is reported as “binds”. Regarding LIIFGVMAGVIGT (domain or fragment) [wild type (WT) GpA TM domain in the ToxLuc construct (ToxR-TM-MBP)], the binding entry in assay [4] is given as “binds”. With FWALVVVAGVLFCYGLLVTVALCVIWT (domain or fragment) [WT mouse CD28 TM domain in the ToxLuc construct (ToxR-TM-MBP)], the binding result in assay [5] is given as “binds”. For the molecule VLVVVGGVLACYSLLVTVAFIIF (domain or fragment) [WT human CD28 TM domain in the ToxLuc construct (ToxR-TM-MBP)], the binding result in assay [6] is “binds”.

(Values after paper PMC7378745.)
